Results on 1 molecule are retold here after paper PMC11177969, “Comprehensive Analyses of the Effects of the Small-Molecule Inhibitor of the UHM Domain in the Splicing Factor U2AF1 in Leukemia Cells” (Research Square, 2024).

Some results come without the dose or concentration used. Where no unit stands, none is given here, and values compare only within one read-out.

The test system of the series is K562-U2AF1^S34F cells. Kind of series: RNA-seq experiment. Type of series: cell-based.

Regarding `Cn1nc(C2(C)CCNCC2)cc1O` [SF1–8], where the note is “SF1–8 treated vs control”, the “down-regulated genes in the top 99 differentially expressed genes” value was 63 and the “up-regulated genes in the top 99 differentially expressed genes” value is 36. Besides, the “transcripts with significantly changed mRNA expression levels” value (after SF1–8 treatment) is given as 1034.
